Experimental data reported in US20210238173A1, “MITOGEN-ACTIVATED PROTEIN KINASE KINASE 7 INHIBITORS” (Yeda Research and Development Co. Ltd., priority 2018, published 2021).
Some entries share one result that the patent states for a list of compounds. For part of these data: At least one compound was matched to its structure with a doubt left.

Assays:
[1] = Metabolic stability in rat liver microsomes; type: in vitro ADME
Description: (§1) A reference compound, REF1250, was used in this study: […]

[2] = Metabolic stability in dog liver microsomes; type: in vitro ADME
Description: as §1

pJNK in HEK293 cells = assay: In-cell western (ICW) pJNK inhibition in HEK293; type: cell-based; conditions: negative control compounds
Description: HEK293, Beas2B and 3T3 cells were plated 24 hours before procedure on 384 well clear bottom black flat plates (Corning) pre-coated with Fibronectin (Sigma) diluted in PBS to a concentration of 5 μg/ml 45 minutes prior to cells introduction. Cells were plated using Multidrop™ Combi reagent dispenser (Thermo Fisher Scientific). Compound, reagents and antibody dispensing as well as washes were performed with a CyBio liquid handler (Analytik). Cells were pre-incubated with a small molecule or up to 1% DMSO for 2 h before fixation. HEK293, 3T3 or Beas2B cells were treated with 0.6M/0.2M/0.2M D-Sorbitol/PBS (Sigma) for 20/40/40 min. respectively, before fixation. […] Wells signals were analyzed with Odyssey software. […]
To rapidly assess the cellular activity (EC50) with full dose response curves of the MKK7 covalent inhibitors, according to some embodiments of the present invention, an in-cell western assay was adapted to a 384 well plate format over traditional western blot, and monitored phospho-JNK (pJNK) levels in response to osmotic shock. […] The compound's activity was assessed by pre-treating cells with either compound or DMSO for 2 hours, followed by Sorbitol stimulation. The response of pJNK, and its substrates, pc-Jun and pATF2, was measured, as well as pP38, which is a substrate of MKK4 but not MKK7, and pERK in HEK293 cells, and the results are presented in Table 5 below.

C=CC(=O)Nc1cc(C(=O)NC)cc(-c2n[nH]c3ccccc23)c1 [PCM487]
Halflife ([1]; listed as PCM87): more than 40 min | Halflife ([2]; listed as PCM87): more than 40 min

CCC(=O)Nc1cccc(-c2[nH]nc3ccccc23)c1 [PCM520, reference compound]
no effect on pJNK up to (pJNK in HEK293 cells): > 100 μM

C=CC(=O)Nc1cc(C(=O)O)cc(-c2n[nH]c3ccccc23)c1 [PCM476]
Halflife ([1]; listed as PCM76): more than 40 min | Halflife ([2]; listed as PCM76): more than 40 min

C=CC(=O)Nc1cccc(-c2nn(C)c3ccccc23)c1 [PCM521, reference compound]
no effect on pJNK up to (pJNK in HEK293 cells): > 100 μM
